Assay results taken from PubChem BioAssay AID1347076 (National Center for Advancing Translational Sciences (NCATS), 2019).
Among all 400,000 compounds or so, about 13,000 (3.2%) were called active. The inconclusive results got no clear call from the source; some entries with a clear call stand among them for comparison. Calls come from the whole dose curve; as a rule, active = well fitted cell-killing curve with a large enough effect; inconclusive = small, poorly fitted or top-dose-only effect, or effect the other way; inactive = flat fitted curve, though single readings scatter. Potencies of inconclusive entries are doubtful fits and often do not repeat.
% is set by controls: 0 for no effect and ±100 for the full control effect; potency is the fitted concentration of half-maximal effect.

Assay: qHTS assay for MDR1-selective chemotherapeutics: Primary screen using the drug-selected MDR subline cells KB-V1; note: nearly all actives have a fitted effect of over 60% in size
Conditions: KB-V1 MDR cells viability, CellTiter-Glo, 72 h; activity change, negative = cytotoxicity: at 46.1 µM (top of the series)
In short: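 Cytotoxicity toward P-gp-expressing KB-V1 cells was determined as loss of CellTiter-Glo luminescence after 72 h at 37 degrees C. Compounds were tested in quantitative HTS format across a concentration range, with curves fitted to normalized data.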
With `CCOC(=O)c1cc(S(=O)(=O)Nc2ccc(OC)c(Cl)c2)[nH]n1` the Potency was inconclusive: 29.1 µM [rising, single point].
With `CCOc1ccc(/C=C/C(O)=C2/C(=O)NC3(C)CC2c2ccccc2O3)cc1OC` (centres undefined) the Potency was inconclusive: 10.3 µM [cytotoxic, partial curve].
With `COc1ccccc1Nc1nc(N)nc(CN2CCN(c3ccccc3)CC2)n1` the Potency was inconclusive: 18.4 µM [cytotoxic, partial curve].
In the case of `COCCNC(=O)Nc1ccc(F)cc1`, the Potency is reported as inconclusive: 2.91 µM [cytotoxic, partial curve, poor fit].
In the case of `O=C(Nc1cc(S(=O)(=O)N2CCCCC2)ccc1N1CCOCC1)c1ccc(F)cc1`, the Potency is reported as inconclusive: 6.51 µM [cytotoxic, partial curve, poor fit].
In the case of `c1ccc(Nc2nc(NCc3ccco3)c3ccccc3n2)cc1`, the Potency is reported as inconclusive: 18.4 µM [cytotoxic, single point].
With `Cc1ccc(C(c2nnnn2CCc2ccccc2)N2CCSCC2)cc1` (centres undefined) the Potency was inconclusive: 4.61 µM [cytotoxic, single point].
With `O=C1C=CC(=O)N1c1ccc(O)cc1` the Potency was inconclusive: 8.2 µM [rising, partial curve, poor fit].
With `CCc1cccc(NC(=O)Cn2cc3c(n2)CCCC3)c1` the “activity change, negative = cytotoxicity” value was inactive: -21.7%.
In the case of `CN1C(=O)Cc2cc(S(=O)(=O)CCC(=O)Nc3cccc(C(F)(F)F)c3)ccc21`, the Potency is reported as inconclusive: 32.6 µM [rising, partial curve, poor fit].
With `COc1ccc(OC)c(NC(=S)N2CCC(C(O)(c3ccccc3)c3ccccc3)CC2)c1` the Potency was inconclusive: 5.17 µM [cytotoxic, partial curve].
In the case of `Cc1cc(C)n(C(=O)c2ccc([N+](=O)[O-])c(Cl)c2)n1`, the Potency is reported as inconclusive: 29.1 µM [rising, single point].
With `COc1ccccc1Oc1nc2c(c(=O)n(C)c(=O)n2C)n1Cc1cccc(Br)c1` the “activity change, negative = cytotoxicity” value was inactive: -2.65%.
For `CC(O)c1nc2ccc(Cc3ccc4nc(C(C)O)[nH]c4c3)cc2[nH]1` (centres undefined), the Potency was inconclusive: 29.1 µM [rising, single point].
For `COc1ccccc1-c1nnc(SCC(=O)c2c(N)n(C3CC3)c(=O)[nH]c2=O)o1`, the “activity change, negative = cytotoxicity” value was inactive: 7.8%.
With `C(=C\c1ccccc1)/C=N/Nc1nc2ccccc2[nH]1` the “activity change, negative = cytotoxicity” value was inactive: 0%.
In the case of `Oc1ccc(/C=N\Nc2nncc(-c3ccccc3)n2)cc1`, the Potency is reported as inconclusive: 11.6 µM [cytotoxic, partial curve].
For `CC(=O)c1ccc(NC(=O)Nc2ccc(Cl)cc2)cc1`, the Potency was inconclusive: 23.1 µM [cytotoxic, partial curve].
For `CC(=O)Nc1ccc(S(=O)(=O)Nc2cccc(-c3ccc(N4CCC(C)CC4)nn3)c2)cc1`, the “activity change, negative = cytotoxicity” value was inactive: 0%.
In the case of `CC1=NN(C(=O)Cn2nc([N+](=O)[O-])c(Br)c2C)C(O)(C(F)(F)F)C1` (centres undefined), the “activity change, negative = cytotoxicity” value is reported as inactive: 11.1%.
For `CN(CCn1ccnc1)Cc1cn(-c2ccccc2)nc1-c1ccc2c(c1)OCO2`, the Potency was inconclusive: 29.1 µM [cytotoxic, single point].
With `CCCc1noc(-c2ccc(N3CCCCC3)c([N+](=O)[O-])c2)n1` the “activity change, negative = cytotoxicity” value was inactive: 8.9%.
With `COc1cc(OC)cc(N(C(=O)c2ccco2)C(C(=O)NC2CCCC2)c2ccc(N3CCOCC3)cc2)c1` (centres undefined) the Potency was inconclusive: 11.6 µM [cytotoxic, partial curve, poor fit].
With `CCn1c(SCC(=O)Nc2cc(C)on2)nc2c(c1=O)SC(C)C2` (centres undefined) the Potency was inconclusive: 9.2 µM [cytotoxic, partial curve].
For `CC(C)CC(=O)NC(c1ccccc1Cl)c1c(O)ccc2ccccc12` (centres undefined), the Potency was active: 20.6 µM.
For `CCN(CC)S(=O)(=O)c1ccc(Cl)c(C(=O)Oc2cccnc2)c1`, the Potency was inconclusive: 20.6 µM [rising, single point].
For `COc1cccc(-c2nc(SCC(=O)Nc3ccc4c(c3)OCO4)c(-c3ccccc3)[nH]2)c1`, the Potency was inconclusive: 18.4 µM [cytotoxic, single point].
For `COc1ccccc1NC(=O)CSc1nnc2ccc(-c3ccccn3)nn12`, the Potency was inconclusive: 10.3 µM [cytotoxic, partial curve].
With `O=C(NNS(=O)(=O)c1cccc(Cl)c1)c1cc(-c2ccc(F)cc2)nc2ccccc12` the “activity change, negative = cytotoxicity” value was inactive: -23.1%.
In the case of `O=C(Cc1ccc(Br)cc1)N1CCN(c2ccccn2)CC1`, the Potency is reported as inconclusive: 9.2 µM [cytotoxic, partial curve].
For `CCOC(=O)C1CCN(c2ncnc3c2c(-c2ccccc2)cn3-c2ccc(C)cc2)CC1`, the Potency was inconclusive: 18.4 µM [cytotoxic, single point].
In the case of `Cc1cc(N/N=C/c2cccc([N+](=O)[O-])c2)nc(-n2nc(C)cc2C)n1`, the Potency is reported as inconclusive: 29.1 µM [cytotoxic, single point].
With `Cc1nc2c(cnn2-c2ccccc2Cl)c(=O)n1-c1ccc(C(C)C)cc1` the Potency was inconclusive: 18.4 µM [cytotoxic, partial curve].
In the case of `CCCCC(=O)c1c(O)c2ccccc2oc1=O`, the Potency is reported as inconclusive: 16.4 µM [cytotoxic, single point].
With `CC/C(=N\N=C1\SC(C)C(=O)N1Cc1ccco1)c1ccccc1` (centres undefined) the Potency was inconclusive: 13 µM [cytotoxic, partial curve].
In the case of `CCC(=O)Nc1cccc2c1C(=O)N(C)C2=O`, the “activity change, negative = cytotoxicity” value is reported as inactive: 12.1%.
In the case of `O=C(NC(=S)N1CCN(c2nc(-c3ccccc3)cs2)CC1)c1cccnc1`, the Potency is reported as active: 20.6 µM.
With `Fc1ccc(NC(=S)Nc2cc(Cl)ccc2Cl)cc1` the Potency was inconclusive: 16.4 µM [rising, single point].
With `COc1c(Cl)cc(Cl)cc1C(=O)Nc1ccc(CN2CCOCC2)cc1` the “activity change, negative = cytotoxicity” value was inactive: -13%.
With `CN(c1cccc(NC(=O)c2ccccc2N(C)S(=O)(=O)c2ccccc2)c1)S(C)(=O)=O` the Potency was inconclusive: 20.6 µM [cytotoxic, partial curve].
For `O=C(Cc1ccccc1F)Nc1cc(S(=O)(=O)N2CCOCC2)ccc1N1CCCC1`, the “activity change, negative = cytotoxicity” value was inactive: 4.6%.
In the case of `COc1cccc(C(=O)NCC(=O)N/N=C/c2c(C)[nH]c3ccccc23)c1`, the Potency is reported as inconclusive: 3.66 µM [rising, full curve].
With `Cc1ccc2c(c1)c(C)c(C)n2CC(O)CN1CCOCC1` (centres undefined) the “activity change, negative = cytotoxicity” value was inactive: -12.6%.
For `Cc1noc(C)c1COC(=O)c1cccc(S(=O)(=O)N2CCCCCC2)c1`, the Potency was inconclusive: 5.17 µM [cytotoxic, partial curve].
In the case of `Cc1ccc(C)c(C(=O)COC(=O)CNS(=O)(=O)c2ccccc2)c1`, the Potency is reported as inconclusive: 29.1 µM [rising, single point].
For `COc1ccc(CN2CCN(C(=O)C3CCC(CNS(=O)(=O)c4ccc(C)cc4)CC3)CC2)c(OC)c1OC` (centres undefined), the Potency was inconclusive: 18.4 µM [cytotoxic, partial curve, poor fit].
For `Cc1ccc(S(=O)(=O)Nc2ccc(NC(=O)Nc3ccc(F)cc3F)cc2)cc1`, the Potency was active: 23.1 µM.
For `O=C(Cn1cncn1)NCc1cccc(OC(F)F)c1`, the “activity change, negative = cytotoxicity” value was inactive: 4.33%.
In the case of `CCn1cc([N+](=O)[O-])c(C(=O)Nc2ccn(Cc3ccccc3)n2)n1`, the “activity change, negative = cytotoxicity” value is reported as inactive: -20.9%.
In the case of `CCc1nnc(NC(=O)c2cccc(S(=O)(=O)N3CCN(C(C)=O)CC3)c2)s1`, the Potency is reported as inconclusive: 29.1 µM [rising, single point].
For `Cc1ccc(NC(=O)C2CC(=O)N(Cc3ccccc3)C2)nc1` (centres undefined), the “activity change, negative = cytotoxicity” value was inactive: -14.7%.
For `COCCn1ccc2c(OCC(=O)NCCc3ccc(OC)c(OC)c3)cccc2c1=O`, the Potency was inconclusive: 20.6 µM [cytotoxic, partial curve, poor fit].
For `O=C(CC1Sc2ccccc2NC1=O)Nc1cccc(-c2nnc3n2CCCCC3)c1` (centres undefined), the Potency was inconclusive: 8.2 µM [rising, partial curve].
For `CC(C)CNC(=O)c1ccccc1NC(=O)CCSc1ccccc1`, the Potency was active: 20.6 µM.
For `O=C(Nc1ccc(N2CCOCC2)cc1)c1ccc(S(=O)(=O)NCc2ccco2)cc1`, the “activity change, negative = cytotoxicity” value was inactive: 21.8%.
With `CCNC(=O)C1(C)CCN(C(=O)c2ccc3snnc3c2)C1` (centres undefined) the “activity change, negative = cytotoxicity” value was inactive: 5.43%.
In the case of `COC(CN(C(=O)CCl)C(C(=O)NC1CCCCC1)c1ccc(C)cc1)OC` (centres undefined), the Potency is reported as inconclusive: 29.1 µM [cytotoxic, single point].
In the case of `COc1ccc(S(=O)(=O)N(CCc2ccccc2)CC(=O)N/N=C/c2ccc3c(c2)OCO3)cc1`, the Potency is reported as active: 4.61 µM.
In the case of `Cc1ccc(NC(=O)c2cc(NC(=O)CCCC(=O)O)ccc2Cl)cc1Cl`, the “activity change, negative = cytotoxicity” value is reported as inactive: 0%.
For `COc1ccc(S(=O)(=O)NCCSCc2ccc(Cl)cc2)cc1NC(C)=O`, the Potency was inconclusive: 14.6 µM [cytotoxic, single point].
With `Cc1ccc(-c2nc(C(=O)NCCCN3CCOCC3)cc3c2[nH]c2ccccc23)cc1` the Potency was inconclusive: 23.1 µM [cytotoxic, single point].
With `COc1ccc(-c2nnc(SCC(=O)N(C)C3CCS(=O)(=O)C3)n2N)cc1OC` (centres undefined) the Potency was inconclusive: 18.4 µM [rising, partial curve].
For `Cc1cc(=O)n2nc(-c3ccc(C(F)(F)F)cc3)sc2n1`, the Potency was inconclusive: 0.0073 µM [cytotoxic, full curve].
With `Cc1[nH][nH]c(=O)c1C(c1ccc(-c2ccc(F)cc2)o1)c1c(C)[nH][nH]c1=O` the “activity change, negative = cytotoxicity” value was inactive: 22.1%.
In the case of `O=C(NNC(=O)c1nc2ccccc2[nH]1)OCc1ccccc1`, the Potency is reported as inconclusive: 16.4 µM [cytotoxic, single point].
With `COc1ccccc1OCc1csc(NC(=O)c2ccco2)n1` the Potency was inconclusive: 18.4 µM [cytotoxic, single point].
With `Cc1ccc(NC(=S)N2CCC(NC(=O)c3ccc(F)cc3)CC2)cc1C` the Potency was inconclusive: 5.8 µM [cytotoxic, partial curve].
In the case of `O=c1nc(Nc2ccccc2)oc2ccccc12`, the activity change, negative = cytotoxicity is reported as inconclusive: -30.7% [cytotoxic].
For `COC(=O)C1=C(CSCc2ccccc2)NC(=O)NC1c1cc(C)ccc1C` (centres undefined), the Potency was inconclusive: 18.4 µM [cytotoxic, partial curve, poor fit].
